Measured values taken from patent publication US9962360B2, “Compositions and methods for enhancing hair growth, promoting skin regeneration, and wound healing” (The Hospital for Sick Children, priority 2014, dated 2018).
For some of these results: At least one structure is not confirmed: it was looked up by name or label, or the drawing left a doubt. Some entries share one result that the patent states for a list of compounds. Some ranges recur; such a range may be that of the whole group of compounds.

How the values were obtained:
[1] = tested on: SKPs; assay: Methylcellulose colony formation assay with MEK inhibition; assay type: cell-based; details: grown in FGF2 and EGF
[2] = tested on: SKP spheres; assay: Ki67 immunostaining of SKP spheres with or without trametinib; assay type: cell-based; details: SKP spheres cultured for 48 hours
[3] = tested on: SKPs; assay: 7 day sphere assay with MEK inhibition; details: 100 nM trametinib
[4] = tested on: human SKPs; assay: Dose response sphere forming assay in human SKPs cultures

Structure (SMILES)	number of clonal spheres [1]	size of clonal spheres [1]	SKPs proliferation (Ki67 immunostaining) [2]	SKPs survival [2]	sphere number [3]	dose as low as which sphere number was enhanced [4]
CC(=O)Nc1cccc(-n2c(=O)n(C3CC3)c(=O)c3c(Nc4ccc(I)cc4F)n(C)c(=O)c(C)c32)c1 [trametinib]	decrease	decrease	decreased	not survival	robust decrease	–
CCCCC[C@H](O)/C=C/[C@H]1[C@H](O)CC(=O)[C@@H]1CCCCCCC(=O)O [Alp, alprostadil]	–	–	–	–	–	1 to 10 nM
O=c1c(O)c(-c2ccc(O)cc2)oc2cc(O)cc(O)c12 [Kae, kaempferol]	–	–	–	–	–	1 to 10 nM
